Measured data: PubChem BioAssay AID743454 (Peter MacCallum Cancer Centre, 2014)
Test: 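Genes whose loss kills vorinostat-resistant colon cancer cells under vorinostat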 (primary screen). Cells: human HCT116-VR colon cancer cells, selected for vorinostat resistance. Knock-down reagent: siRNA pool against human genes, 40 nM siRNA pool. Duration: vorinostat for 24 h, read-out about 72 h after transfection. Conditions: vorinostat at 2.5 µM final. Measured: 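Cell viability by CellTiter-Fluor and caspase 3/7 activity by luminescence, each scaled to mock wells per plate, duplicates averaged, then robust z-scored over all plates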. Scale: viability robust z-score: higher = more viable cells than screen typical; caspase robust z-score: higher = more caspase 3/7 activity than screen typical. Call rule: 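a knock-down is a hit when classed RV1 or RV2 for lowered viability, or CA1 or CA2 for caspase activation; those lethal without drug were dropped; hits were retested singly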.
The deposit covers about 18,000 reagents; shown is a random part of them. In the full data, 450 (2.5%) are marked active. 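Single biological run; no consistent viability z cut-off exists, so the class columns, not z-scores, define the calls.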

Gene | PubChem SID | viability hit class | caspase hit class | viability robust z-score | caspase robust z-score | Outcome
ADCY4 | SID152148141 | no change | no change | 0.29 | -1.12 | inactive
MEP1B | SID152148542 | no change | no change | 0.8 | -0.42 | inactive
TAL1 | SID134310171 | no change | no change | -0.06 | 0.26 | inactive
ATP6V1C2 | SID152150742 | no change | no change | -0.02 | -0.36 | inactive
NXF1 | SID152150105 | no change | no change | -5.18 | 0.81 | inactive
PRKY | SID135620861 | no change | no change | -0.4 | 0.15 | inactive
PIAS3 | SID152153330 | no change | no change | -0.78 | -0.22 | inactive
NKAIN4 | SID135622948 | no change | no change | 0.34 | -0.62 | inactive
UNC79 | SID152151880 | no change | no change | -1.28 | 2.08 | inactive
FBXL3 | SID134316694 | no change | no change | -0.21 | 0.9 | inactive
NAPRT | SID134320885 | no change | no change | -0.9 | 3.86 | inactive
CDC25C | SID152148969 | RV2 (reduced viability) | no change | -3.38 | 0.36 | active
CCDC112 | SID152154529 | no change | no change | 1 | 3.11 | inactive
OSGEP | SID152155472 | no change | no change | -0.92 | -1.08 | inactive
CYB561A3 | SID152149001 | no change | no change | 0.05 | 0.6 | inactive
C3orf70 | SID152153143 | no change | no change | 0.53 | -0.24 | inactive
MAFB | SID134313855 | no change | no change | 0.04 | -0.51 | inactive
DNTTIP1 | SID134319222 | no change | no change | -0.61 | 1.15 | inactive
PRICKLE4 | SID152152472 | no change | no change | 0.84 | -0.04 | inactive

Continued (6 carried over from the part before).
Gene | PubChem SID | viability hit class | caspase hit class | viability robust z-score | caspase robust z-score | Outcome
OSGEP | SID152155472 | no change | no change | -0.92 | -1.08 | inactive
CYB561A3 | SID152149001 | no change | no change | 0.05 | 0.6 | inactive
C3orf70 | SID152153143 | no change | no change | 0.53 | -0.24 | inactive
MAFB | SID134313855 | no change | no change | 0.04 | -0.51 | inactive
DNTTIP1 | SID134319222 | no change | no change | -0.61 | 1.15 | inactive
PRICKLE4 | SID152152472 | no change | no change | 0.84 | -0.04 | inactive
THAP6 | SID135624210 | no change | no change | -0.08 | -1.02 | inactive
SLC35E1 | SID134312593 | no change | no change | -0.02 | -0.68 | inactive
RAD9B | SID134320179 | no change | no change | -0.52 | 1.74 | inactive
HLA-DRB3 | SID134317438 | no change | no change | -3.27 | 2.43 | inactive
BRINP3 | SID135625066 | no change | no change | 0.1 | 1.03 | inactive
FUNDC2 | SID152148255 | no change | no change | -0.18 | -0.88 | inactive
CCDC171 | SID134322333 | no change | no change | 0.62 | 0.49 | inactive
SLC25A15 | SID152155196 | no change | no change | -0.05 | 5.06 | inactive
UCHL3 | SID135621135 | no change | no change | 0.01 | 2.36 | inactive
EMILIN2 | SID135622817 | no change | no change | -0.1 | -0.38 | inactive
RND1 | SID135621679 | no change | no change | 0.96 | -0.62 | inactive
WWC1 | SID134318241 | no change | no change | 0.42 | -0.09 | inactive
ZNF485 | SID134320309 | no change | no change | 0.38 | -0.34 | inactive
CIB4 | SID135624322 | no change | no change | -0.36 | -0.22 | inactive
SHPK | SID135621260 | no change | no change | -0.96 | 3.88 | inactive
TMEM9 | SID135624124 | no change | no change | 0.28 | 1.39 | inactive
ATF4 | SID134310757 | no change | no change | -0.8 | 0.78 | inactive
RTRAF | SID134324373 | no change | no change | 0.18 | 0.34 | inactive
ARHGEF6 | SID134314827 | no change | no change | 0.76 | -0.78 | inactive
PSMD3 | SID135622111 | no change | no change | -4.5 | 2.55 | inactive
ARHGAP9 | SID135621877 | no change | no change | -0.84 | 0.33 | inactive
MDM4 | SID135621211 | no change | no change | 0.16 | -1 | inactive
NOBOX | SID152150836 | no change | no change | 0.3 | -0.76 | inactive
PRIM1 | SID135623938 | no change | no change | 1.4 | -0.51 | inactive
TTLL9 | SID152147228 | no change | no change | 0.53 | -0.62 | inactive
PI4KA | SID135621251 | no change | no change | -1.07 | 0.24 | inactive
LGALSL | SID152154363 | no change | no change | -0.28 | 0.34 | inactive
C12orf43 | SID134318403 | no change | no change | -1.23 | 2.59 | inactive
TMEM178A | SID135623170 | no change | no change | -0.34 | 2.73 | inactive
CISD1 | SID152149408 | no change | no change | 0.29 | 0.84 | inactive
TGFBR2 | SID152152630 | no change | no change | 0.08 | 2.12 | inactive
RARS2 | SID135622604 | no change | CA1 (caspase activation) | -0.6 | 5.49 | active
GK | SID56479100 | no change | no change | -0.3 | -0.82 | inactive
PPRC1 | SID152154201 | no change | no change | 0.5 | 0.18 | inactive
OR2A42 | SID135624799 | no change | no change | -0.95 | 1.43 | inactive
KIF6 | SID152153703 | no change | no change | 0.42 | 2.22 | inactive
TIPIN | SID152148399 | no change | no change | 0.6 | -1.08 | inactive
GCH1 | SID152148432 | no change | no change | -0.76 | -0.42 | inactive
